The list shows a part of the results.
How the values were obtained:
Assay in all cases: log2 fold change, soluble protein after heating vs DMSO (PISA); higher = thermal stabilisation; K562 cells, 10 uM, 30 min; active = over 0.2 and 3.5 SD of the protein, either way, in both replicates (recomputed)
[1] = compound: CC1=C(C=C(C=C1)NC(=O)C2=CC(=CC=C2)N(C)C)NC(=O)C3=CC=C(C=C3)O
Summary of the method: (§1)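 Quantification of soluble protein used TMTpro 16plex LC-MS/MS, with channel sums equalised. Samples were the supernatant after 21,000xg for 90 min of pooled aliquots from K562 cells (2×10^6 cells/mL) treated with 10 μM compound for 30 min, heated for 3 min over 48°C-58°C, and extracted in PBS with 0.5% NP-40 at 4°C. Values, from duplicates, describe thermal stability against control samples on a log2 fold-change scale.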

Protein sequences, listed by entry. Tags and fused reporters are not part of them. Lines headed by an entry give the natural chain unless they say otherwise; changes in a name come on top.
UniProt P39210: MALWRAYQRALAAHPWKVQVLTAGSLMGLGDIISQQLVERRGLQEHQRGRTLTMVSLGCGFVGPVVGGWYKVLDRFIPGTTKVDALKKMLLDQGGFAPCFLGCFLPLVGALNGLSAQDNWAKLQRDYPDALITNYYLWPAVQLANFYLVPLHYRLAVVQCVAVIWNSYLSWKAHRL
UniProt Q9Y5U8: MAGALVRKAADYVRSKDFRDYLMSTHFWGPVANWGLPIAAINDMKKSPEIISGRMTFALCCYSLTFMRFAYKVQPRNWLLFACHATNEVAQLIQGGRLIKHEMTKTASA
UniProt Q9UHC7: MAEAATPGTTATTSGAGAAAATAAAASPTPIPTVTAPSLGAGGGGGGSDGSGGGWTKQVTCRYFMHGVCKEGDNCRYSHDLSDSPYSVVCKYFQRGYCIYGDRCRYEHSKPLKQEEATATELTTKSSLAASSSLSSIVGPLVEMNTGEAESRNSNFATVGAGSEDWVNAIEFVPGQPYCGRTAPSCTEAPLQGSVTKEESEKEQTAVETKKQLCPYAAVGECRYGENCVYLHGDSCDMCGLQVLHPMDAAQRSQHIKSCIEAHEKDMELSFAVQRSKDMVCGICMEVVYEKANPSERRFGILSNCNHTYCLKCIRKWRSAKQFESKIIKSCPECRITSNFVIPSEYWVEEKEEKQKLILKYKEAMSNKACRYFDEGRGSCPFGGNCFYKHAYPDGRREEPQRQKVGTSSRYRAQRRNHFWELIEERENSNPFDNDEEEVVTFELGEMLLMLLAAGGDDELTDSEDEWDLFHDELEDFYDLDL
UniProt Q9BVC4, whole entry, looked up: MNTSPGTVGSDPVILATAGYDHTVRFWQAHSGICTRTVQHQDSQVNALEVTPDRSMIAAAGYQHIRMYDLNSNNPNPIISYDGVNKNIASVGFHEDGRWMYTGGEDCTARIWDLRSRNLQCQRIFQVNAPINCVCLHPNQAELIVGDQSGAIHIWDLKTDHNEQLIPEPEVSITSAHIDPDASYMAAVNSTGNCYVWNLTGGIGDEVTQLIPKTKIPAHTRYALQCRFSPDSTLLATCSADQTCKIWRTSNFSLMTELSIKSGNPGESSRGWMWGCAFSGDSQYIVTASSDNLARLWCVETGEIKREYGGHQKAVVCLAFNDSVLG
UniProt P08473: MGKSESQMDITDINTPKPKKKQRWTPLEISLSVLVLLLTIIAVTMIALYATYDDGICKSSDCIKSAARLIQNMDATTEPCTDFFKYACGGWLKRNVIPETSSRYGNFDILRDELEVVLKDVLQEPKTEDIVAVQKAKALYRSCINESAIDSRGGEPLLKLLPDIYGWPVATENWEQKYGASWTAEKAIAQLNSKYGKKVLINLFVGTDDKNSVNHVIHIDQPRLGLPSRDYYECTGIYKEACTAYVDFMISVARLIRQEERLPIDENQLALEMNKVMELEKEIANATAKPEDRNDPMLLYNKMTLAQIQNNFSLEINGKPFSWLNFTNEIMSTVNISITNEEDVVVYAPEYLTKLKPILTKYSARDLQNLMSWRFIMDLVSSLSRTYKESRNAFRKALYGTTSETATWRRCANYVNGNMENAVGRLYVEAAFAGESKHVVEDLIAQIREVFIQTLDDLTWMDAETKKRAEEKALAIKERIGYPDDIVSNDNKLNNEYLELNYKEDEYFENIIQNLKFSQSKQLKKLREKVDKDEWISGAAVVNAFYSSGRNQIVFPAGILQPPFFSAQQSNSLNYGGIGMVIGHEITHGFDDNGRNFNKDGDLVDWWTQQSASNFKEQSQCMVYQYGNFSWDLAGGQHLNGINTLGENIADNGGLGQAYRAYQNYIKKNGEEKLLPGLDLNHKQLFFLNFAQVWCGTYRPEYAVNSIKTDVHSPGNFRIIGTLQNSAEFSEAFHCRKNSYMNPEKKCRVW
UniProt Q86VX9: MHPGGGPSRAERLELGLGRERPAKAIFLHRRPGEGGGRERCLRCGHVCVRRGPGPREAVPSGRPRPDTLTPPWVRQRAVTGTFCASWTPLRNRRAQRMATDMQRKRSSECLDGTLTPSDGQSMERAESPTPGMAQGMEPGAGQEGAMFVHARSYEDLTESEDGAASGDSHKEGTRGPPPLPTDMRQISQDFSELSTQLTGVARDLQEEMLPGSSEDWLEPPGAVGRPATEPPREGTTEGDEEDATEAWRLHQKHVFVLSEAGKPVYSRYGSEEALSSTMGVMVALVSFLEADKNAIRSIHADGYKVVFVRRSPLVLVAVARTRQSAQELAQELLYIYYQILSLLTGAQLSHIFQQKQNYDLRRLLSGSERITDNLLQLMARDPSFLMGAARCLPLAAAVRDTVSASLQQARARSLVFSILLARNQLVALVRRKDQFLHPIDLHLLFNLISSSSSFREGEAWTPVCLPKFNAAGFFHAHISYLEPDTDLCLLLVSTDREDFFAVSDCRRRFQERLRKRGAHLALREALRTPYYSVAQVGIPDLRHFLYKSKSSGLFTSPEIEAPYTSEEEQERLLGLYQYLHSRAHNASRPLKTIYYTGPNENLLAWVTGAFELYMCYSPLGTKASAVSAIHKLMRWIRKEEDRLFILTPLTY
UniProt Q29983, whole entry, looked up: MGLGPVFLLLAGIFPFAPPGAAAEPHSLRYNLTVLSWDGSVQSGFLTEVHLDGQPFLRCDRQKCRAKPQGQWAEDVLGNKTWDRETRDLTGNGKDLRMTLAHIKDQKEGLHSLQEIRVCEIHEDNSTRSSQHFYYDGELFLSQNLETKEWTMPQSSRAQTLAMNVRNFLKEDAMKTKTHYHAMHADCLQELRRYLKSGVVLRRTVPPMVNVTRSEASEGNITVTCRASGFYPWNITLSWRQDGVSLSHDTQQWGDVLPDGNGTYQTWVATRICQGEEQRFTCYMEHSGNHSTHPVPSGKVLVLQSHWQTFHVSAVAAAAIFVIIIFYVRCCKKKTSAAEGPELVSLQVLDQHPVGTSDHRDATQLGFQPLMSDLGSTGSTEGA
UniProt Q95460, whole entry, looked up: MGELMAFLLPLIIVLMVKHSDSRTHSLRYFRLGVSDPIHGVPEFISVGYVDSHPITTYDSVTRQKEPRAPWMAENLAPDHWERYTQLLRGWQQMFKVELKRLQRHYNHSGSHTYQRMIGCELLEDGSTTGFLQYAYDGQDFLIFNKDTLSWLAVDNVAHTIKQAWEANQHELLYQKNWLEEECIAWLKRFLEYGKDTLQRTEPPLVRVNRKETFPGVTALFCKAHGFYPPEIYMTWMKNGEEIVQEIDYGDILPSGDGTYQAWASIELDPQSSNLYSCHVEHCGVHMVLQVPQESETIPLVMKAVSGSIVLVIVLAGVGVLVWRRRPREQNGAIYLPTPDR
UniProt Q86TA1: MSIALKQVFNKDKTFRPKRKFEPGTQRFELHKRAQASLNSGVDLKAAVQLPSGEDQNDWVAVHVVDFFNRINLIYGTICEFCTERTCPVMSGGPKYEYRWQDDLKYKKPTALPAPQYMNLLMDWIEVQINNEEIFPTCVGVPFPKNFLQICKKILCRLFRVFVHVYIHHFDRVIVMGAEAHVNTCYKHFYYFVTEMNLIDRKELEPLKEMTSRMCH
UniProt Q8NB16: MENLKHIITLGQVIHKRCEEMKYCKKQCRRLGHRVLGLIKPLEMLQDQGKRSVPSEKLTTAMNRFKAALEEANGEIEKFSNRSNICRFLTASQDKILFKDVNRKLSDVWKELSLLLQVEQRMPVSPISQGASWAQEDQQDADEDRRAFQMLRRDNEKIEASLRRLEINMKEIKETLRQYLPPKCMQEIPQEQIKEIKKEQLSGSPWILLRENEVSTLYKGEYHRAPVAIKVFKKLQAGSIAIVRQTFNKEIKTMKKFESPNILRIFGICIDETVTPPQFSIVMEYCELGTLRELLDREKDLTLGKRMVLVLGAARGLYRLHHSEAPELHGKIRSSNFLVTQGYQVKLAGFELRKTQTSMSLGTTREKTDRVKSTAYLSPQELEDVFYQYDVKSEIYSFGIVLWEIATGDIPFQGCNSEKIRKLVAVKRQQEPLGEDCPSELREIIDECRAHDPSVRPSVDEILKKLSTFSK
UniProt Q8N108: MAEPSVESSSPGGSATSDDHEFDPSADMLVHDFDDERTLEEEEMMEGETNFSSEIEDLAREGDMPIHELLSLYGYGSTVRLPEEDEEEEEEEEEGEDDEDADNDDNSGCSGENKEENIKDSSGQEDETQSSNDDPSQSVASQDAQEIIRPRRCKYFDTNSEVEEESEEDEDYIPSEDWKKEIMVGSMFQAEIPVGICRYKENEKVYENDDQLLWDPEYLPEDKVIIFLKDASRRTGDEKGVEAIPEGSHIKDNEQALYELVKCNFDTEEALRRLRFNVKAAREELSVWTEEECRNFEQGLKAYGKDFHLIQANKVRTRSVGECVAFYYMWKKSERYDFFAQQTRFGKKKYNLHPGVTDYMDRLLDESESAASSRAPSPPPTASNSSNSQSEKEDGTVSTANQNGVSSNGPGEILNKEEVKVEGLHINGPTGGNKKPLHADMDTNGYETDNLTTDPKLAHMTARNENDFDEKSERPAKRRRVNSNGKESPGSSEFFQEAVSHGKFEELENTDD
UniProt O75030: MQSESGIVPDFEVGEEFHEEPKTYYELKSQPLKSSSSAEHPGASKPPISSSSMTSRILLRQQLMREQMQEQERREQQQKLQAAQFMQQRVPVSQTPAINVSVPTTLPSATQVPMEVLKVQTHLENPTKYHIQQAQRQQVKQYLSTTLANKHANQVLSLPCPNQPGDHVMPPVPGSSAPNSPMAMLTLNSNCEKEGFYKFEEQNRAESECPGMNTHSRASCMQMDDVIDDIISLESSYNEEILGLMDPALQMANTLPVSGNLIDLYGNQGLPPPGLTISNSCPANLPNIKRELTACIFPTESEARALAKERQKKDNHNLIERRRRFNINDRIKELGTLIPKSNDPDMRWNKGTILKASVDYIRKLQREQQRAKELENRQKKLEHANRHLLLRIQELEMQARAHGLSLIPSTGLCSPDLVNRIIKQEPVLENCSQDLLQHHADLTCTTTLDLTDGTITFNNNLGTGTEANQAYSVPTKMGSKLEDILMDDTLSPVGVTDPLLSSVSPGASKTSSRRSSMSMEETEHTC
UniProt Q96BX8: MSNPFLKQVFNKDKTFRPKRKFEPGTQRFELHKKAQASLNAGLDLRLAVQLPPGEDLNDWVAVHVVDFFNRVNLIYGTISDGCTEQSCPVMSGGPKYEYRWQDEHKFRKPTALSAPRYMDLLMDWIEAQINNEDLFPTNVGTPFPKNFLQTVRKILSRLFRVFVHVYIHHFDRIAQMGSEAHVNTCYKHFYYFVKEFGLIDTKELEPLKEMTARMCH
UniProt Q9UJG1: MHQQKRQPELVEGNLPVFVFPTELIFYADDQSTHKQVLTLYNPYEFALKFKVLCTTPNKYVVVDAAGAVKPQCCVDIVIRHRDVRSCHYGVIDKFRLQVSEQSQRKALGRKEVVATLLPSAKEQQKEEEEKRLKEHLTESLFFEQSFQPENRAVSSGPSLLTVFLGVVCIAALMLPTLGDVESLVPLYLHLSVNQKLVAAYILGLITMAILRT
UniProt Q13064: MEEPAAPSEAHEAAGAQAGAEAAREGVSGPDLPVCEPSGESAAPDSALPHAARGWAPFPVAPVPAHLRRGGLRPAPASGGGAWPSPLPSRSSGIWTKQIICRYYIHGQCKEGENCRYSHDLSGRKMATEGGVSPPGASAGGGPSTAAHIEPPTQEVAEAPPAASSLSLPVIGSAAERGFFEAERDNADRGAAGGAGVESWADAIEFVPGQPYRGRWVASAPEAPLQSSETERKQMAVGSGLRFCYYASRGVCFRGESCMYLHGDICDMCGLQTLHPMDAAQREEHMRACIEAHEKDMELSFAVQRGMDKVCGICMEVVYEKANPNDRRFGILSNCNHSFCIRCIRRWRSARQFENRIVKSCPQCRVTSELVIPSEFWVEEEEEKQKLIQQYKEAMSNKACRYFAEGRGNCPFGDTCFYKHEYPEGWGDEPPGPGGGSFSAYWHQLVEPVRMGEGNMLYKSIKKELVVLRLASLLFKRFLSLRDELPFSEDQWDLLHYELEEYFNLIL
UniProt O96033: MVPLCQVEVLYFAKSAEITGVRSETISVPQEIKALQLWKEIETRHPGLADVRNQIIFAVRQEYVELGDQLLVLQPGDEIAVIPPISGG
UniProt Q8NBR6: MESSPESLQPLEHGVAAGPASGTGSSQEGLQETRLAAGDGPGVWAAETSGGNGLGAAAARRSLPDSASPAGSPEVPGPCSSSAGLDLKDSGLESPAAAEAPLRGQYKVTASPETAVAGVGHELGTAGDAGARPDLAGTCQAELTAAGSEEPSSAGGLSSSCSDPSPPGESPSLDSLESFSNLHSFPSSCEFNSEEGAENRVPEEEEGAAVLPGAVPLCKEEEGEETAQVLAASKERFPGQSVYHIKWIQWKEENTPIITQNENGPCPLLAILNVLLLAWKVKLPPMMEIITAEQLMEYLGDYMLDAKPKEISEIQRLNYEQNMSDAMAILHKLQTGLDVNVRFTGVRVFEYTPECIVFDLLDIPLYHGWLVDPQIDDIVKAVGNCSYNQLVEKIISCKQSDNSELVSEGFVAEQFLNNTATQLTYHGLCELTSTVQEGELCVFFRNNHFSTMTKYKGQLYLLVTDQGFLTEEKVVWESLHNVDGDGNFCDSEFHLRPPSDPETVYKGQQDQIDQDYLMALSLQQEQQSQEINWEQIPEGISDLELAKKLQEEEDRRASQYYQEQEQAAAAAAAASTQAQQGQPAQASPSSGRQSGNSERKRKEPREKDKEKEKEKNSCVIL

[2] = compound: CC1=CC=C(C=C1)SC2=C3C=C(SC3=CN=C2)C(=O)N
Summary of the method: as §1

[3] = compound: CCCCN(Cc1ccc(C(=O)NO)cc1)C(=O)Nc1ccccc1 [Nexturastat A]
Summary of the method: as §1

[4] = compound: CCCS(=O)(=O)Nc1ccc(F)c(C(=O)c2c[nH]c3ncc(Cl)cc23)c1F
Summary of the method: as §1

[5] = compound: CCCc1cc(C)[nH]c(=O)c1CNC(=O)c1cc(-c2ccnc(N3CCN(C)CC3)c2)cc2c1cnn2C(C)C
Summary of the method: as §1

[6] = compound: CCN(CCCOc1ccc2c(Nc3cc(CC(=O)Nc4cccc(F)c4)[nH]n3)ncnc2c1)CCOP(=O)(O)O [barasertib]
Summary of the method: as §1

[7] = compound: CC1=C(C=C(C=C1)NC(=O)C2=CC(=CC=C2)C(C)(C)C#N)NC3=CC4=C(C=C3)N=CN(C4=O)C
Summary of the method: as §1

[8] = compound: CCN(CC)Cc1ccc2cc(COC(=O)Nc3ccc(C(=O)NO)cc3)ccc2c1 [givinostat]
Summary of the method: as §1

[9] = compound: CC1=NC(=CC=C1)C2=C(N=C(N2)C(C)(C)C)C3=CC4=NC=CN=C4C=C3
Summary of the method: as §1

[10] = compound: CCCS(=O)(=O)Nc1ccc(F)c(C(=O)c2c[nH]c3ncc(-c4ccc(Cl)cc4)cc23)c1F [vemurafenib]
Summary of the method: as §1

Target	log2 fold change [1]	log2 fold change [2]	log2 fold change [3]	log2 fold change [4]	log2 fold change [5]	log2 fold change [6]	log2 fold change [7]	log2 fold change [8]	log2 fold change [9]	log2 fold change [10]
MLLT10 (UniProt P55197)	inactive: 0.063	inactive: -0.233	inactive: 0.079	inactive: -0.168	inactive: 0.041	inactive: 0.083	–	–	–	–
MPV17 (UniProt P39210)	inactive: -0.021	inactive: -0.029	inactive: -0.185	inactive: -0.011	inactive: 0.031	inactive: -0.057	inactive: -0.02	inactive: 0.053	–	–
MRFAP1 (UniProt Q9Y605)	inactive: -0.011	inactive: 0.101	–	inactive: 0.046	inactive: 0.009	inactive: 0.036	inactive: -0.073	inactive: 0.017	inactive: -0.045	inactive: -0.148
MPC1 (UniProt Q9Y5U8)	inactive: -0.072	inactive: 0.075	–	inactive: 0.078	inactive: -0.045	inactive: 0.012	inactive: 0.044	inactive: 0.012	–	–
MKRN1 (UniProt Q9UHC7)	inactive: 0.114	inactive: -0.174	inactive: 0.122	inactive: -0.068	inactive: 0.016	inactive: -0.175	–	inactive: 0.015	inactive: -0.074	inactive: -0.001
MLST8 (UniProt Q9BVC4)	–	inactive: 0.094	inactive: 0.001	inactive: 0.031	inactive: -0.035	inactive: 0.038	inactive: 0.118	inactive: -0.058	inactive: -0.079	inactive: 0.009
MME (UniProt P08473)	–	–	–	–	inactive: 0.012	inactive: 0.076	–	inactive: 0.102	–	inactive: 0.077
MKKS (UniProt Q9HB66)	–	–	inactive: 0.027	–	inactive: -0.068	inactive: -0.003	inactive: -0.091	inactive: -0.081	–	inactive: 0.048
MON1A (UniProt Q86VX9)	inactive: 0.004	inactive: -0.061	inactive: 0.015	inactive: -0.011	inactive: 0.009	inactive: 0.065	inactive: 0.055	inactive: 0.008	inactive: 0.061	–
MMADHC (UniProt Q9H3L0)	inactive: 0.001	inactive: -0.078	–	inactive: -0.057	inactive: 0.108	inactive: 0.029	–	inactive: 0.04	inactive: -0.078	inactive: 0.067
MICA (UniProt Q29983)	inactive: 0.1	inactive: -0.004	–	inactive: -0.035	–	inactive: -0.177	inactive: -0.129	inactive: 0.059	–	inactive: 0.013
MMAA (UniProt Q8IVH4)	–	inactive: 0.16	inactive: -0.051	inactive: -0.198	–	–	inactive: -0.037	inactive: 0.061	–	–
MRM2 (UniProt Q9UI43)	–	inactive: 0.046	–	inactive: -0.078	–	–	–	inactive: 0.001	–	inactive: 0.047
MR1 (UniProt Q95460)	–	–	inactive: 0.089	–	inactive: -0.011	–	–	inactive: 0.103	inactive: -0.143	–
MOB3B (UniProt Q86TA1)	–	inactive: -0.147	–	inactive: -0.272	inactive: 0.039	inactive: 0.018	–	inactive: 0.174	inactive: -0.033	inactive: 0.137
MOB2 isoform 3 (UniProt Q70IA6)	inactive: -0.039	inactive: 0.081	inactive: -0.149	inactive: 0.018	inactive: 0.163	inactive: -0.121	–	inactive: 0.061	–	–
MMGT1 (UniProt Q8N4V1)	inactive: -0.017	inactive: 0.029	inactive: -0.186	inactive: 0.016	–	inactive: 0.051	inactive: 0.011	inactive: -0.112	inactive: 0.01	inactive: -0.063

Reformatted: results already given

| Target | log2 fold change [1] | log2 fold change [2] | log2 fold change [3] | log2 fold change [4] | log2 fold change [5] | log2 fold change [6] | log2 fold change [7] | log2 fold change [8] | log2 fold change [9] | log2 fold change [10] |
| --- | --- | --- | --- | --- | --- | --- | --- | --- | --- | --- |
| MKRN1 (UniProt Q9UHC7) | inactive: 0.114 | inactive: -0.174 | inactive: 0.122 | inactive: -0.068 | inactive: 0.016 | inactive: -0.175 | – | inactive: 0.015 | inactive: -0.074 | inactive: -0.001 |
| MLST8 (UniProt Q9BVC4) | – | inactive: 0.094 | inactive: 0.001 | inactive: 0.031 | inactive: -0.035 | inactive: 0.038 | inactive: 0.118 | inactive: -0.058 | inactive: -0.079 | inactive: 0.009 |

(further entries)

Target	log2 fold change [1]	log2 fold change [2]	log2 fold change [3]	log2 fold change [4]	log2 fold change [5]	log2 fold change [6]	log2 fold change [7]	log2 fold change [8]	log2 fold change [9]	log2 fold change [10]
MOCS3 (UniProt O95396)	–	inactive: -0.006	inactive: -0.096	inactive: 0.034	inactive: 0.499	inactive: 0.093	inactive: -0.106	inactive: -0.03	inactive: 0.127	inactive: -0.072
MICAL2 (UniProt O94851)	inactive: -0.005	–	inactive: 0.029	–	inactive: 0.044	inactive: 0.031	–	–	inactive: -0.089	inactive: 0.031
MLKL (UniProt Q8NB16)	–	inactive: 0.161	inactive: -0.153	inactive: 0.023	–	–	inactive: 0.161	inactive: 0.113	inactive: 0.024	inactive: 0.058
MIER1 isoform 12 (UniProt Q8N108)	inactive: 0.016	inactive: 0.002	active: 0.306	inactive: 0.008	inactive: -0.013	inactive: 0.01	inactive: 0.003	active: 0.31	inactive: 0.012	inactive: -0.006
MRPL45 (UniProt Q9BRJ2)	inactive: -0.082	inactive: -0.087	inactive: 0.166	inactive: -0.008	inactive: 0.086	inactive: -0.091	inactive: -0.041	inactive: 0.052	inactive: -0.057	inactive: -0.022
MITF (UniProt O75030)	–	–	–	–	inactive: -0.281	–	inactive: 0.005	inactive: -0.002	inactive: 0.107	inactive: 0.016
MRPL57 (UniProt Q9BQC6)	–	inactive: -0.01	inactive: 0.19	inactive: -0.08	inactive: 0.082	inactive: -0.109	inactive: 0.089	inactive: 0.16	–	inactive: -0.098
MORC2 (UniProt Q9Y6X9)	–	inactive: -0.059	inactive: -0.046	inactive: 0.208	inactive: 0.231	inactive: -0.002	–	inactive: 0.026	inactive: 0.047	–
MICB, A0A140T979	inactive: -0.037	inactive: 0.023	inactive: -0.101	inactive: -0.032	inactive: -0.079	inactive: 0.045	–	inactive: -0.005	inactive: 0.038	inactive: -0.034
MOB3A (UniProt Q96BX8)	inactive: 0.299	inactive: 0.035	–	inactive: 0.125	inactive: -0.056	inactive: 0.071	inactive: 0.227	inactive: -0.008	inactive: 0	inactive: -0.081
MIER3 isoform 2 (UniProt Q7Z3K6)	–	–	–	–	–	–	–	–	–	inactive: 0.03
MOSPD1 isoform 3 (UniProt Q9UJG1)	–	–	–	–	inactive: -0.018	–	–	inactive: 0.02	–	–
MRPL42 (UniProt Q9Y6G3)	inactive: 0.012	inactive: -0.034	inactive: 0.341	inactive: -0.09	inactive: -0.005	inactive: -0.1	inactive: 0.095	–	inactive: -0.014	inactive: -0.108
MKRN3 (UniProt Q13064)	inactive: 0.313	inactive: 0.051	inactive: -0.219	inactive: -0.013	–	–	inactive: 0.044	inactive: 0.172	inactive: 0.049	inactive: 0.033
MIER2 (UniProt Q8N344)	–	–	inactive: -0.073	–	–	–	–	inactive: -0.055	–	inactive: -0.064
MOCS2 (UniProt O96033)	–	–	–	–	–	–	inactive: -0.128	inactive: -0.032	–	–
MINDY2 (UniProt Q8NBR6)	–	–	inactive: 0.031	–	inactive: -0.089	–	–	inactive: -0.082	–	–
